# Data: PubChem BioAssay AID504467 (National Center for Advancing Translational Sciences (NCATS), 2011)
# Hit rate of the full screen: of about 330,000 compounds, about 7,700 (2.3%) were called active. Inconclusive means that the source gave no clear call. Such entries were picked first, then a sample of the others. Calls follow the shape of the dose curve; as a rule, active = well fitted inhibition curve with a large enough effect; inconclusive = small, poorly fitted or top-dose-only effect, or effect the other way; inactive = flat fitted curve, though single readings scatter. Potencies of inconclusive entries are doubtful fits and often do not repeat.
# Experiment: qHTS screen for small molecules that inhibit ELG1-dependent DNA repair in human embryonic kidney (HEK293T) cells expressing luciferase-tagged ELG1; also: nearly all actives have a fitted effect of over 55% in size
# Conditions: HEK293T ELG1-luciferase reporter, luminescence, 16 h, DNA damage induced by 5-fluorouridine; activity change, negative = inhibition: at 46.1 µM (top of the series)
# In short: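 Overnight (16 hr) co-exposure of 2,000 cells/well to 5-fluorouridine and compound at 37 °C preceded detection. Luciferase was quantified via ONE-Glo luminescence; loss of signal denotes inhibition.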
# % is scaled to controls: 0 for no effect and ±100 for the full control effect; potency is read from the fitted curve at half-maximal effect.
SMILES,Potency,"activity change, negative = inhibition"
O=C(CS(=O)(=O)c1cn(CC(=O)N2CCCC2)c2ccccc12)Nc1ccccc1,"inconclusive: 18.3 µM [activator, single point]",
Cc1cccn2c(=O)c3cc(C(=O)N4CCCC(C)C4)sc3nc12 (stereo unspecified),"inconclusive: 20.6 µM [activator, single point]",
Cc1c(C(=O)Nc2ccc(S(=O)(=O)NCC3CCCO3)cc2)cccc1[N+](=O)[O-] (stereo unspecified),,inactive: -15.2%
CCOc1cc(/C=N/NC(=S)Nc2ccccc2C(F)(F)F)ccc1OCC(=O)N1CCOCC1,active: 11.6 µM,
Cc1ccc(-n2ncc3c(NNC(=O)c4cccs4)ncnc32)cc1,,inactive: 6.52%
O=C(CN1C(=O)c2ccccc2S1(=O)=O)c1ccc(OC(F)F)cc1,active: 11.6 µM,
O=C(Nc1ccccc1)OCCN1CCN(Cc2ccccc2)CCC1=O,,inactive: -3.39%
COc1ccc(C2C3=C(CCCC3=O)Nc3ccc4ncccc4c32)cc1OC (stereo unspecified),"inconclusive: 18.3 µM [activator, partial curve]",
COc1ccc(C(=O)Nc2cccc(-c3csc(C)n3)c2)cc1S(=O)(=O)N1CCCC1,"inconclusive: 20.6 µM [inhibitor, partial curve]",
CCN(C[C@H]1N[C@@](C)(C(=O)OC)[C@H]2C(=O)N(Cc3ccccc3)C(=O)[C@@H]12)C(=O)C1CCCCC1,,inactive: -7.05%
O=C(Nc1nc2ccsc2c(=O)s1)c1ccco1,"inconclusive: 23.1 µM [activator, partial curve]",
CC(=O)Nc1ccc(NC2=C/C(=N/S(=O)(=O)c3cccs3)c3ccccc3C2=O)cc1,active: 1.64 µM,
C=CCNC(=O)/C(C#N)=C/c1ccc2c(c1)OCCO2,"inconclusive: 29.1 µM [activator, single point]",
CC(=O)Nc1ccc(SCC(=O)Nc2ccc3c(c2)OCCO3)cc1,"inconclusive: 14.6 µM [activator, partial curve]",
Cc1cc(N2CCCC2)ccc1/C=C1\NC(=S)N(C)C1=O,"inconclusive: 5.8 µM [inhibitor, partial curve]",
CC(=O)C1=C(C)N(Cc2ccco2)C(=O)C1(NC(=O)C1CCCCC1)C(F)(F)F (stereo unspecified),,inactive: 6.95%
COc1ccc(CSc2nncn2N)cc1[N+](=O)[O-],,inactive: 11.5%
C[C@@H]1C[C@H]2[C@@H]3CCC4=CC(=O)C=C[C@]4(C)[C@@]3(F)[C@@H](O)C[C@]2(C)[C@@]1(O)C(=O)CO,"inconclusive: 15.8 µM [activator, partial curve, poor fit]",
CCOc1ccccc1NC(=O)c1ccc(F)c(S(=O)(=O)N2CCC3(CC2)OCCO3)c1,active: 20.6 µM,
Cc1ccc(NC(=O)CCC(=O)N/N=C/c2ccc(O)cc2O)cc1,active: 18.3 µM,
CC(C)CCN1CC(C(=O)NCc2ccc(F)cc2)CC1=O (stereo unspecified),"inconclusive: 29.1 µM [activator, partial curve, poor fit]",
C[C@@H]1CC[C@@]2(O[C@H](CCO)C[C@@H](O)[C@@H]2O)O1,,inactive: 14.7%
Cc1occc1C(=O)NCc1nc(-c2ccc(Cl)cc2)no1,,inactive: 3.38%

SMILES,Potency,"activity change, negative = inhibition"
O=C(Nc1ccc(C(=O)N2CCOCC2)cc1)c1cc(-c2cccnc2)nc2ccc(Cl)cc12,"inconclusive: 20.6 µM [inhibitor, partial curve]",
Cn1c(=O)c2sccc2n2c(CCCC(=O)Nc3ccc(F)cc3F)nnc12,,inactive: -9.96%
O=C(NCC1CCCO1)c1cc2nc(-c3ccco3)cc(C(F)(F)Cl)n2n1 (stereo unspecified),,inactive: -0.541%
CCN(CC)S(=O)(=O)c1ccc2nc(CSc3nnnn3-c3ccc(O)cc3)[nH]c2c1,"inconclusive: 29.1 µM [inhibitor, single point]",
Cc1oncc1-c1csc(-c2ccccc2)n1,"inconclusive: 18.3 µM [activator, partial curve]",
O=c1c(-c2ccccc2)coc2cc(O)ccc12,"inconclusive: 14.6 µM [activator, partial curve]",
COc1cc(NC(=O)COc2ccc(-n3ccnc3)cc2)cc(OC)c1,"inconclusive: 18.3 µM [inhibitor, single point]",
O=C(c1cc(-c2ccc(Br)cc2)on1)N1CCCC1,"inconclusive: 2.06 µM [activator, full curve]",
CC1CCc2nc(NC(=O)CSc3nc4ccccc4o3)sc2C1 (stereo unspecified),"inconclusive: 5.8 µM [activator, partial curve]",
Cc1cc(NCCCN)nc(-c2ccccc2O)n1,,inactive: 24.1%
COc1ccc(-n2c(C)cc(/C=C/c3nc(O)c([N+](=O)[O-])c(=O)[nH]3)c2C)cc1,,inactive: -5.11%
CCOc1ccc(CNC(=O)c2ccc(Sc3ccc(C)cc3)c(NC(C)=O)c2)cc1OC,"inconclusive: 20.6 µM [inhibitor, partial curve]",
CCOC(=O)c1ccc2c(c1)[nH]c(=S)n2CC,"inconclusive: 14.6 µM [activator, partial curve]",
COc1ccc(CN(C(=O)c2ccc(-c3ccccc3)[nH]2)C(C(=O)NC(C)(C)C)c2ccncc2)cc1 (stereo unspecified),"inconclusive: 23.1 µM [inhibitor, single point]",
COc1ccc(C(=O)/C=C/c2ccc(N3CCCCC3)c([N+](=O)[O-])c2)cc1,,inactive: -19.8%
CCn1c(SCC(=O)c2ccccc2)nnc1-c1cccs1,"inconclusive: 20.6 µM [activator, partial curve]",
Cc1c(-n2cc(C(=O)O)c(=O)c3cc(F)c(N4CCCC4)c(F)c32)c(=O)n(-c2ccccc2)n1C,,inactive: 12.6%
O=C(CCc1nnc2ccc(NCc3ccc(F)cc3)nn12)NC1CCCC1,,inactive: 13%
Cn1cnc2c(N3CCCCC3)nccc21,,inactive: 2.57%
Cc1ccc(Cn2nnc3c(=O)[nH]c(C4CCN(S(=O)(=O)Cc5ccccc5)CC4)nc32)cc1,active: 14.6 µM,
O=S(=O)(CCc1ccncc1)C1Cc2cccc3cccc1c23 (stereo unspecified),"inconclusive: 20.6 µM [inhibitor, single point]",
C/C(=N\NC(=O)c1ccccc1)c1ccc(C)c([N+](=O)[O-])c1,"inconclusive: 14.6 µM [activator, partial curve]",
Fc1ccc(COc2cccc3cccnc23)cc1,"inconclusive: 23.1 µM [activator, partial curve]",

# Random excerpt: four compounds from above
SMILES,Potency,"activity change, negative = inhibition"
CCN(C[C@H]1N[C@@](C)(C(=O)OC)[C@H]2C(=O)N(Cc3ccccc3)C(=O)[C@@H]12)C(=O)C1CCCCC1,,inactive: -7.05%
Cc1cc(N2CCCC2)ccc1/C=C1\NC(=S)N(C)C1=O,"inconclusive: 5.8 µM [inhibitor, partial curve]",
O=c1c(-c2ccccc2)coc2cc(O)ccc12,"inconclusive: 14.6 µM [activator, partial curve]",
C[C@@H]1CC[C@@]2(O[C@H](CCO)C[C@@H](O)[C@@H]2O)O1,,inactive: 14.7%
